Experimental data taken from patent publication US8304371B2, “Insecticidal arylpyrrolines” (Bayer Cropscience AG, priority 2008, dated 2012).
Some entries share one result that the patent states for a list of compounds.

Experiments:
Format in all cases: in vivo
[1] = system: Tobacco Cutworm (Spodoptera litura) Larvae; test: Test against tobacco cutworm (Spodoptera litura) larvae, leaf dip; conditions: active compound concentration 100 ppm; third-instar larvae; after 7 days
Protocol: (§1) Unless nomentioned otherwise, the test solutions were prepared as follows:
(§2) Containing as solvent: Dimethylformamide, 3 parts by weight; and as emulsifier: Polyoxyethylene alkyl phenyl ether, 1 part by weight
(§3) To prepare the test solution, 1 part by weight of an active compound is mixed with the above-mentioned amount of solvent containing the above-mentioned amount of emulsifier, and the mixture is diluted with water to the desired concentration.
The leaves of sweet potato were immersed in the test solution at the appropriate concentration, and the leaves were dried in air. The leaves were then placed in a petri dish having a diameter of 9 cm, and ten third-instar larvae of tobacco cutworm were released therein. The petri dish was placed in a temperature chamber at 25° C. After 2 days and 4 days sweet potato leaves were additionally added. After 7 days, the number of dead larvae was counted, to calculate the insecticidal activity. An insecticidal activity of 100% means that all larvae were killed, whereas an insecticidal activity of 0% means that no larva was killed. In the current test, the results of two petri dishes for each partition were averaged.

[2] = system: Sheep Blowfly (Lucillia cuprina); test: Test against sheep blowfly; conditions: active compound concentration 100 ppm; after 2 days
Protocol: (§4) Solvent: Dimethylsulfoxide
(§5) In order to make a suitable test solution, 10 mg of an active compound is dissolved in 0.5 ml of the solvent, and the mixture is diluted with water to a predetermined concentration.
Minced horse meat having a size of 1 square centimeter, and 0.5 ml of the test solution are placed in a test tube, and about 20 to 30 adult sheep blowflies are introduced therein.
After 2 days the mortality rate of the sheep blowflies is measured. 100% means that all of the sheep blowflies have been killed, and 0% means that all are alive.

[3] = system: Cattle Tick (Boophilus microplus); test: Test against cattle tick, injection; conditions: 20 μg/animal injected; after 7 days; 100% means that all eggs are infertile
Protocol: as §4
In order to make a suitable test solution, 10 mg of an active compound is dissolved in 0.5 ml of the above mentioned solvent, and the mixture is diluted with water to a predetermined concentration.
The test solution is injected into the abdomens of five fully-fed female adult cattle ticks. The cattle ticks are transferred to a replica plate, and are bred in a breeding vessel for a certain time period. Egg deposition of fertile eggs is monitored.
After 7 days the mortality rate of the cattle ticks is measured. 100% means that all eggs are infertile; and 0% means that all eggs are fertile.

[4] = system: Housefly (Musca domestica); test: Test against housefly; conditions: active compound concentration 100 ppm; adult houseflies; after 2 days
Protocol: as §4, §5
In a preliminary stage of the test, a piece of sponge having a certain size is soaked with a mixture of sugar and the test solution is placed in a test container. Ten adult houseflies are introduced to the container, and the container is covered with a perforated lid.
After 2 days, the mortality rate of the houseflies is measured. At that time, 100% means that all of the houseflies have been killed, and 0% means that all are alive.

[5] = system: Strain of Green Peach Aphid (Mvzus persicas) which is Resistant to Organic Phosphorus and Carbamate Agents; test: Test against resistant green peach aphid, spray on egg plant; conditions: active compound concentration 100 ppm; after 7 days
Protocol: as §1, §2, §3
About 30 to 50 of the resistant green peach aphids were inoculated per seedling, onto the leaves of egg plant at the two-true leaf stage, which plant had been cultivated in a pot having a diameter of 6 cm. One day after the inoculation, the test solution at the appropriate concentration was sprayed thereon in a sufficient amount using a spray gun. After the spraying, the plant pot was placed in a greenhouse at 28° C., and after 7 days, the insecticidal activity was calculated. An insecticidal activity of 100% means that all aphids were killed, whereas an insecticidal activity of […] means that no aphid was killed. The test was repeated two times.

[6] = system: Cat Fleas (Ctenocephalides fells); test: Test against cat fleas, blood feeding; conditions: active compound concentration 100 ppm in blood; adult fleas; after 2 days
Protocol: as §4
About 10 to 15 adult cat fleas are provided in a container exclusive for fleas. An exclusive container containing the test solution is covered with Parafilm, reversed upside down, and then mounted on top of the flea container, so that the cat fleas can suck the blood in the container. The test solution is maintained at 37° C., and the flea container is maintained at room temperature. After 2 days the mortality rate of the cat fleas is measured. 100% means that all of the cat fleas have been killed, while 0% means that all are alive.

N#Cc1cc(C2=NCC(c3cc(Cl)cc(Cl)c3)(C(F)(F)F)C2)ccc1-n1ccnn1 (racemic) [1-37]
≥ 80%: insecticidal activity [1]

O=C(CC(F)(F)F)NCc1ccc(C2=NCC(c3cc(Cl)c(Cl)c(C(F)(F)F)c3)(C(F)(F)F)C2)cc1C(F)(F)F (racemic) [2-206]
≥ 80%: insecticidal activity [1]

O=C(NCc1ccc(C2=NCC(c3cc(Cl)c(Cl)c(C(F)(F)F)c3)(C(F)(F)F)C2)cc1C(F)(F)F)C1CC1 (racemic) [2-207]
≥ 80%: insecticidal activity [1]

CCNC(=O)NCc1ccc(C2=NCC(c3cc(Cl)c(Cl)c(C(F)(F)F)c3)(C(F)(F)F)C2)cc1C(F)(F)F (racemic) [2-208]
≥ 80%: insecticidal activity [1]

CSCC(=O)NCc1ccc(C2=NCC(c3cc(Cl)c(Cl)c(Cl)c3)(C(F)(F)F)C2)cc1C(F)(F)F (racemic) [2-209]
≥ 80%: mortality rate [2] | mortality rate [3] | mortality rate [4] | insecticidal activity [5] | mortality rate [6]

O=C(CC(F)(F)F)NCc1ccc(C2=NCC(c3cc(Cl)cc(Cl)c3)(C(F)(F)F)C2)cc1C(F)(F)F (racemic) [2-211]
≥ 80%: mortality rate [2] | mortality rate [3] | mortality rate [4] | insecticidal activity [5] | mortality rate [6]

O=C(NCc1ccc(C2=NCC(c3cc(Cl)cc(Cl)c3)(C(F)(F)F)C2)cc1C(F)(F)F)C1CC1 (racemic) [2-212]
≥ 80%: mortality rate [2] | mortality rate [3] | mortality rate [4] | insecticidal activity [5] | mortality rate [6]

FC(F)(F)C1(c2cc(Cl)cc(Cl)c2)CN=C(c2ccc(-n3cncn3)cc2)C1 (stereo not shown) [1-6]
≥ 80%: mortality rate [3]

N#Cc1cc(C2=NCC(c3cc(C(F)(F)F)cc(C(F)(F)F)c3)(C(F)(F)F)C2)ccc1-n1cncn1 (stereo not shown) [1-72]
≥ 80%: mortality rate [2] | mortality rate [3] | mortality rate [4] | insecticidal activity [5] | mortality rate [6]

N#Cc1cc(C2=NCC(c3cc(Cl)c(Cl)c(Cl)c3)(C(F)(F)F)C2)ccc1-n1cncn1 (stereo not shown) [1-78, 2-(1H-1,2,4-triazol-1-yl)-5-[3-(3,4,5-trichlorophenyl)-3-(trifluoromethyl)-3,4-dihydro-2H-pyrrol-5-yl]-benzonitrile]
≥ 80%: mortality rate [2]

Cc1nnn(-c2ncc(C3=NCC(c4cc(Cl)cc(Cl)c4)(C(F)(F)F)C3)cc2C#N)n1 (stereo not shown) [1-100]
≥ 80%: mortality rate [3] | mortality rate [6]

CCC(=O)NCc1ccc(C2=NCC(c3cc(Cl)cc(Cl)c3)(C(F)(F)F)C2)cc1Br (stereo not shown) [2-19]
≥ 80%: mortality rate [2] | mortality rate [3] | mortality rate [4] | mortality rate [6]

COc1cc(C2=NCC(c3cc(Cl)cc(Cl)c3)(C(F)(F)F)C2)ccc1CNC(C)=O (stereo not shown) [2-71]
≥ 80%: insecticidal activity [5]

O=C(NCc1ccc(C2=NCC(c3cc(Cl)cc(Cl)c3)(C(F)(F)F)C2)cc1Br)C1CC1 (stereo not shown) [2-153]
≥ 80%: mortality rate [2] | mortality rate [3] | mortality rate [4] | mortality rate [6]

O=C(CC(F)(F)F)NCc1ccc(C2=NCC(c3cc(Cl)cc(Cl)c3)(C(F)(F)F)C2)cc1Br (stereo not shown) [2-154]
≥ 80%: mortality rate [2] | mortality rate [3] | mortality rate [4] | mortality rate [6]

O=C(CC(F)(F)F)NCc1ccc(C2=NCC(c3cc(Cl)c(Cl)c(Cl)c3)(C(F)(F)F)C2)cc1Cl (stereo not shown) [2-159]
≥ 80%: mortality rate [2] | mortality rate [3] | mortality rate [4] | insecticidal activity [5] | mortality rate [6]

CC(=O)NCc1ccc(C2=NCC(c3cc(Cl)cc(Cl)c3)(C(F)(F)F)C2)cc1C(F)(F)F (stereo not shown) [2-160]
≥ 80%: mortality rate [2] | mortality rate [3] | mortality rate [4] | insecticidal activity [5] | mortality rate [6]

CC(=O)NCc1ccc(C2=NCC(c3cc(Cl)c(Cl)c(Cl)c3)(C(F)(F)F)C2)cc1C(F)(F)F (stereo not shown) [2-161]
≥ 80%: mortality rate [2] | mortality rate [3] | mortality rate [4] | insecticidal activity [5] | mortality rate [6]

CC(=O)NCc1ccc(C2=NCC(c3cc(C(F)(F)F)cc(C(F)(F)F)c3)(C(F)(F)F)C2)cc1C(F)(F)F (stereo not shown) [2-165]
≥ 80%: mortality rate [2] | mortality rate [3] | mortality rate [4] | insecticidal activity [5] | mortality rate [6]

CCC(=O)NCc1ccc(C2=NCC(c3cc(C(F)(F)F)cc(C(F)(F)F)c3)(C(F)(F)F)C2)cc1C(F)(F)F (stereo not shown) [2-166]
≥ 80%: mortality rate [2] | mortality rate [3] | mortality rate [4] | insecticidal activity [5] | mortality rate [6]

O=C(NCc1ccc(C2=NCC(c3cc(C(F)(F)F)cc(C(F)(F)F)c3)(C(F)(F)F)C2)cc1C(F)(F)F)C1CC1 (stereo not shown) [2-167]
≥ 80%: mortality rate [2] | mortality rate [3] | mortality rate [4] | insecticidal activity [5] | mortality rate [6]

O=C(CC(F)(F)F)NCc1ccc(C2=NCC(c3cc(C(F)(F)F)cc(C(F)(F)F)c3)(C(F)(F)F)C2)cc1C(F)(F)F (stereo not shown) [2-168]
≥ 80%: mortality rate [2] | mortality rate [3] | mortality rate [4] | insecticidal activity [5] | mortality rate [6]

O=C(CC(F)(F)F)NCc1ccc(C2=NCC(c3cc(Cl)c(Cl)c(Cl)c3)(C(F)(F)F)C2)cc1Br (stereo not shown) [2-171]
≥ 80%: mortality rate [2] | mortality rate [3] | mortality rate [4] | mortality rate [6]

O=C(NCc1ccc(C2=NCC(c3cc(Cl)c(Cl)c(C(F)(F)F)c3)(C(F)(F)F)C2)cc1Br)C1CC1 (stereo not shown) [2-172]
≥ 80%: mortality rate [2] | mortality rate [3] | mortality rate [4] | insecticidal activity [5] | mortality rate [6]

O=C(NCc1ccc(C2=NCC(c3cc(C(F)(F)F)cc(C(F)(F)F)c3)(C(F)(F)F)C2)cc1Br)C1CC1 (stereo not shown) [2-179]
≥ 80%: mortality rate [2] | mortality rate [3] | mortality rate [4] | insecticidal activity [5] | mortality rate [6]

O=C(CC(F)(F)F)NCc1ccc(C2=NCC(c3cc(C(F)(F)F)cc(C(F)(F)F)c3)(C(F)(F)F)C2)cc1Br (stereo not shown) [2-180]
≥ 80%: mortality rate [2] | mortality rate [3] | mortality rate [4] | mortality rate [6]

CCNC(=O)NCc1ccc(C2=NCC(c3cc(Cl)c(Cl)c(Cl)c3)(C(F)(F)F)C2)cc1Br (stereo not shown) [2-195]
≥ 80%: mortality rate [2] | mortality rate [3] | mortality rate [4] | mortality rate [6]

CCC(=O)NCc1ccc(C2=NCC(c3cc(Cl)c(Cl)c(C(F)(F)F)c3)(C(F)(F)F)C2)cc1C(F)(F)F (stereo not shown) [2-205]
≥ 80%: mortality rate [2] | mortality rate [3] | mortality rate [4] | mortality rate [6]

O=C(CC(F)(F)F)NCc1ccc(C2=NCC(c3cc(Cl)c(Cl)c(Cl)c3)(C(F)(F)F)C2)c2ccccc12 (stereo not shown) [11-8]
≥ 80%: mortality rate [2] | mortality rate [3] | mortality rate [4] | insecticidal activity [5] | mortality rate [6]

CS/C(=N\C[Si](C)(C)C)c1ccc(COC(C)=O)c2ccccc12 [15-2, {4-[(Z)-(methylsulfanyl){[(trimethylsilyl)methyl]imino}methyl]naphthalen-1-yl}methyl acetate]
≥ 80%: mortality rate [2] | mortality rate [3]
